Source: PubChem BioAssay AID602196 (INSERM, 2012)
The whole screen tested about 23,000 reagents; shown is a part drawn at random. 455 of them (2%) were called active. 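Active includes both protection and sensitisation; some change values fall well beyond the stated -50 to +50 range.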 Unmarked entries are inactive. Reagent sequences are not shown. Not given: the amount of reagent.

Aim: 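Modifiers of cisplatin sensitivity in A549 cells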
Cells: human A549 lung cancer cells
Reagents: siRNA pair against human genes
Timing: 48 h transfection before cisplatin; time from cisplatin to read-out not stated
Treatment: cisplatin at a dose killing half of control-siRNA cells; exact dose and duration not given
Measurement: 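Cisplatin cell death as a shift from the 50% death seen with control siRNA; siRNAs toxic or growth-blocking alone scored 0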
Direction: two-siRNA summed score (-2 to +2): higher = both siRNAs protect from cisplatin killing; -2 means both sensitise; mean protection from cisplatin (shift in death) and protection from cisplatin (shift in death), siRNA C and protection from cisplatin (shift in death), siRNA D: higher = protection from cisplatin killing
Rule for the call: 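Each siRNA scores 0 if harmful alone by LDH or WST-1, otherwise +1 if it reduces and -1 if it increases cisplatin killing; a gene is active when both siRNAs agree (sum +2 or -2)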
Calls: active = both siRNAs shift cisplatin killing the same way; inactive = no consistent shift, or siRNA harmful alone

| target | PubChem SID | two-siRNA summed score (-2 to +2) | mean protection from cisplatin (shift in death) (%) | protection from cisplatin (shift in death), siRNA C (%) | protection from cisplatin (shift in death), siRNA D (%) |
| --- | --- | --- | --- | --- | --- |
| TMEM102 (transmembrane protein 102) | SID131501495 | -1 | -9.4 | -6.9 | -11.9 |
| LOC439957 | SID131516307 | 0 | 10.6 | 18.2 | 3 |
| USP32P2 (ubiquitin specific peptidase 32 pseudogene 2) | SID131519529 | 1 | 6.1 | 32.1 | -19.8 |
| LRPPRC (leucine rich pentatricopeptide repeat containing) | SID131519268 | 1 | 4.3 | 9.7 | -1.1 |
| LRP5 (LDL receptor related protein 5) | SID131500700 | -1 | -17.5 | -20.8 | -14.1 |
| KRT78 (keratin 78) | SID131513502 | 0 | 6.7 | -10.1 | 23.4 |
| PAF1 (PAF1 component of Paf1/RNA polymerase II complex) | SID131511486 | 0 | 4.4 | 6.1 | 2.7 |
| KRT7 (keratin 7) | SID131507871 | 0 | 0.4 | 5.9 | -5.2 |
| STK11IP (serine/threonine kinase 11 interacting protein) | SID131501339 | -1 | -10.4 | -11.9 | -8.9 |
| RGL2 (ral guanine nucleotide dissociation stimulator like 2) | SID131506038 | 0 | -2.1 | 8.2 | -12.5 |
| GRM1 (glutamate metabotropic receptor 1) | SID131500403 | -2 (active) | -13.9 | -10.4 | -17.4 |
| MT1B (metallothionein 1B) | SID131513568 | 0 | 6.7 | 18.7 | -5.2 |
| LOC401095 | SID131515415 | 0 | 9.1 | 12.3 | 6 |
| PIGC (phosphatidylinositol glycan anchor biosynthesis class C) | SID131509189 | 0 | 1.9 | 0 | 3.8 |
| CCL25 (C-C motif chemokine ligand 25) | SID131504525 | 0 | -5.2 | 1.8 | -12.1 |
| WASH2P (WASP family homolog 2, pseudogene) | SID131507222 | 0 | -0.4 | -4.1 | 3.3 |
| AIFM3 (AIF family member 3) | SID131503065 | 0 | -14.4 | -33.5 | 4.7 |
| LOC440331 | SID131512744 | 0 | 5.8 | 2.7 | 9 |

6 entries already listed, ordered by “protection from cisplatin (shift in death), siRNA D (%)”, high to low:
| target | PubChem SID | two-siRNA summed score (-2 to +2) | mean protection from cisplatin (shift in death) (%) | protection from cisplatin (shift in death), siRNA C (%) | protection from cisplatin (shift in death), siRNA D (%) |
| --- | --- | --- | --- | --- | --- |
| KRT78 (keratin 78) | SID131513502 | 0 | 6.7 | -10.1 | 23.4 |
| PAF1 (PAF1 component of Paf1/RNA polymerase II complex) | SID131511486 | 0 | 4.4 | 6.1 | 2.7 |
| LRPPRC (leucine rich pentatricopeptide repeat containing) | SID131519268 | 1 | 4.3 | 9.7 | -1.1 |
| KRT7 (keratin 7) | SID131507871 | 0 | 0.4 | 5.9 | -5.2 |
| STK11IP (serine/threonine kinase 11 interacting protein) | SID131501339 | -1 | -10.4 | -11.9 | -8.9 |
| LRP5 (LDL receptor related protein 5) | SID131500700 | -1 | -17.5 | -20.8 | -14.1 |

Additional records follow:
| target | PubChem SID | two-siRNA summed score (-2 to +2) | mean protection from cisplatin (shift in death) (%) | protection from cisplatin (shift in death), siRNA C (%) | protection from cisplatin (shift in death), siRNA D (%) |
| --- | --- | --- | --- | --- | --- |
| ALOX15B (arachidonate 15-lipoxygenase type B) | SID131502984 | 0 | -16.6 | -28.5 | -4.6 |
| PLEKHA7 (pleckstrin homology domain containing A7) | SID131507087 | 0 | -0.6 | 11.8 | -12.9 |
| PLEKHA7 (pleckstrin homology domain containing A7) | SID131514070 | 0 | 7.3 | 0.6 | 14.1 |
| SLURP1 (secreted LY6/PLAUR domain containing 1) | SID131517121 | 0 | 12.5 | 10.8 | 14.1 |
| OR51S1 (olfactory receptor family 51 subfamily S member 1) | SID131508232 | 0 | 0.8 | 5.5 | -3.9 |
| FYTTD1 (forty-two-three domain containing 1) | SID131505417 | 0 | -3.2 | -11.2 | 4.9 |
| SUSD2 (sushi domain containing 2) | SID131501482 | -1 | -9.5 | -19.3 | 0.3 |
| GABARAPL2 (GABA type A receptor associated protein like 2) | SID131521700 | 1 | 14.5 | 9.1 | 20 |
| CFAP251 (cilia and flagella associated protein 251) | SID131505060 | 0 | -3.9 | 6.3 | -14 |
| RPL6P31 (ribosomal protein L6 pseudogene 31) | SID131513533 | 0 | 6.7 | 11.4 | 2 |
| KIAA0543 | SID131507906 | 0 | 0.4 | -4.1 | 4.9 |
| PAGE2 (PAGE family member 2) | SID131522689 | 1 | 21.8 | 31.1 | 12.5 |
| ILK (integrin linked kinase) | SID131519242 | 1 | 4.1 | 14.5 | -6.3 |
| PHOSPHO1 (phosphoethanolamine/phosphocholine phosphatase 1) | SID131500991 | -1 | -13.6 | -15.4 | -11.7 |
| POLK (DNA polymerase kappa) | SID131502904 | 0 | -19 | -3.7 | -34.3 |
| AZGP1 (alpha-2-glycoprotein 1, zinc-binding) | SID131504338 | 0 | -5.7 | -9.8 | -1.6 |
| FLJ36749 | SID131519827 | 1 | 7.6 | 11.4 | 3.9 |
| FUNDC1 (FUN14 domain containing 1) | SID131502296 | -1 | -3.6 | -13.8 | 6.6 |
| LOC389151 | SID131509028 | 0 | 1.7 | 4.7 | -1.2 |
| TRMT10B (tRNA methyltransferase 10B) | SID131500704 | -1 | -17.4 | -12.6 | -22.2 |
| LOC399713 | SID131510840 | 0 | 3.7 | 12.9 | -5.5 |
